Laboratory results published in PubChem BioAssay AID445 (National Center for Advancing Translational Sciences (NCATS), 2006).
This is one part of the list. Shown are side measurements of this screen, not its main read-out; they come without a call. Compounds called inactive in the main read-out are mostly missing here. Potencies come from curve fits of mixed quality, noted in brackets.

Test: IkB Signaling
Details: ABC-DLBCL IkBa-CBG/CBR dual luciferase ratio (green luciferase fused to IkBa over red control in OCI-Ly3 lymphoma cells), 4 h; measured here: control luc red channel unless noted
Method in brief: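 Curves were fitted separately to fusion (green), unfused (red) and ratio luminescence, then classed by r2, magnitude and activity. Cells: OCI-Ly3, 4 h compound plus doxycycline at 37C; 10 uM MG-132 defined full response.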

| SMILES | AC50 |
| --- | --- |
| CC(C)c1cc(C(=O)NCc2ccccc2)no1 | 39.8 µM [falling, single point] |
| CCOc1ccc(CNC(=O)CCS(=O)(=O)c2ccc3c(c2)oc(=O)n3C)cc1 | 25.1 µM [falling, partial curve, poor fit] |
| COC(=O)c1ccc(NC(=O)C(=O)NCC(c2cccnc2)N2CCc3ccccc32)cc1 (stereo not given) | 25.1 µM [falling, single point] |
| Cc1c(NC(=O)c2sc3ccccc3c2Cl)cccc1-c1nc2ccccc2o1 | 1 µM [falling, partial curve] |
| Cc1c(Cl)cccc1NC(=O)Cn1nnc(-c2nc(-c3ccccc3)no2)c1N | 15.8 µM [falling, partial curve, poor fit] |
| C[C@@H]1C[C@@H]2[C@H]3CCC4=CC(=O)C=C[C@]4(C)[C@]3(F)[C@@H](O)C[C@]2(C)[C@@]1(O)C(=O)CO | 2.51 nM [rising, full curve, poor fit] [measured here: IkB-luc green channel] |
| O=C(NC1CCCC1)c1c[nH]c2ccc(F)cc2c1=O | 3.16 µM [rising, partial curve] |
| COc1ccc(CNc2nc3c(-c4cccc(F)c4)nnn3c3ccccc23)cc1 | 2.51 µM [rising, partial curve] |
| COc1ccc(N(C)C(=O)c2cc3c(s2)-c2c(C)cccc2OC3)c(OC)c1 | 39.8 µM [falling, single point] |
| COc1ccc(-c2c(C)nn3c(C(F)(F)F)cc(-c4ccccc4)nc23)cc1OC | 0.398 µM [rising, full curve] |
| CCc1nc(SCC(=O)N2CCN(C(=O)c3ccco3)CC2)c2c3c(sc2n1)CCCC3 | 25.1 µM [falling, partial curve] |
| Cc1ccc(NC(=O)c2c(C)oc3c2C2=NCCN2C=N3)cc1F | 5.01 µM [falling, single point] |
| CCOC(=O)C1CCN(S(=O)(=O)c2cccc(-c3cn4ccccc4n3)c2)CC1 | 15.8 µM [falling, partial curve] |
| COC(=O)c1cc2sccc2n1CC(=O)Nc1ccc(OC)c(OC)c1 | 2.51 µM [rising, full curve] |
| CCc1ccc(-n2c(=O)c3sc4ccccc4c3n(CC(=O)NCc3ccccc3)c2=O)cc1 | 3.16 µM [rising, full curve] |
| COc1ccc(C2=C(N3CCN(c4cc(C)ccc4C)CC3)c3ccccc3C2=O)cc1 | 31.6 µM [falling, partial curve] |
| Cc1c(Cl)cccc1NC(c1ccc(F)cc1)c1nnc(-c2ccccc2)o1 (stereo not given) | 6.31 µM [falling, full curve] |
| COc1ccc(OC)c(-n2c(N)c(C(=O)NCC3CCCO3)c3nc4ccccc4nc32)c1 (stereo not given) | 15.8 µM [falling, partial curve] |
| CCOC(=O)c1cc(S(=O)(=O)N2CCN(c3cccc(C)c3C)CC2)[nH]n1 | 20 µM [falling, partial curve] |
| NC(=O)c1c(C(F)(F)F)cc(-c2ccccc2)nc1NCCO | 15.8 µM [falling, partial curve] |

| SMILES | AC50 |
| --- | --- |
| Cc1ccc(NC(=O)Nc2cn(CC(C)C)c(=O)c3ccccc23)cc1N(C)C | 39.8 µM [falling, single point] |
| COc1ccc(-c2cc(C(C)=O)c(C)n2CCC(=O)NCc2ccc(C)cc2)cc1 | 20 µM [falling, single point] |
| COc1cccc(CNC(=O)C2CCN(C(=O)c3cnn(-c4ccccc4)c3-n3cccc3)CC2)c1 | 12.6 µM [falling, partial curve] |
| COc1ccc(Nc2nnc(-c3ccc(C)c(S(=O)(=O)NCCO)c3)c3ccccc23)cc1C(N)=O | 10 µM [falling, partial curve] |
| COc1ccccc1OCC(=O)N1CCC(c2nc3ccccc3o2)CC1 | 31.6 µM [falling, single point] |
| CCCS(=O)(=O)c1ncc(Cl)c(C(=O)Nc2c(C(=O)Nc3ccccc3)oc3ccccc23)n1 | 10 µM [falling, partial curve] |
| COc1ccc(CCNC(=O)c2cn(C)c3ccc(S(=O)(=O)N4CCOCC4)cc3c2=O)cc1OC | 1 µM [rising, full curve] |
| Cc1ccccc1OCCCCn1c(CCNC(=O)C(C)(C)C)nc2ccccc21 | 20 µM [falling, partial curve] |
| COc1ccc(OC)c(CNC(=O)c2ccc(NC(=O)c3nsc4ccccc34)cc2)c1 | 0.2 µM [falling, full curve] |
| O=C(CSc1ccccc1)NCc1ccc2c(c1)CCN2C(=O)c1ccccc1 | 12.6 µM [falling, partial curve] |
| CN(Cc1ccccc1)C(=O)CCS(=O)(=O)c1ccc2c(c1)oc(=O)n2C | 25.1 µM [falling, single point] |
| Fc1ccc(C(NCCc2ccccc2)c2nnc(-c3ccccc3Cl)o2)cc1 (stereo not given) | 20 µM [falling, partial curve] |
| Cc1ccc2nc(-c3cccc(NC(=O)c4ccc5c(c4)OCCO5)c3)oc2c1 | 7.94 µM [falling, full curve, poor fit] |
| Cc1ccc(C)c(CN2CCCN(CC(=O)Nc3ccc(C)c(C)c3)S2(=O)=O)c1 | 10 µM [falling, partial curve] |
| Nc1nc(CSc2ncn(-c3ccccc3)n2)cs1 | 10 µM [falling, partial curve] |
| CC[C@]1(O)C[C@H]2CN(CCc3c([nH]c4ccccc34)[C@](C(=O)OC)(c3cc4c(cc3OC)N(C)[C@@H]3[C@](O)(C(=O)OC)[C@H](OC(C)=O)[C@]5(CC)C=CCN6CC[C@]43[C@@H]65)C2)C1 | 39.8 nM [rising, full curve] [measured here: IkB-luc green channel] |
| Cc1ccc(S(=O)(=O)N2CCCC2C(=O)OCc2ccco2)cc1 (stereo not given) | 31.6 µM [rising, single point] [measured here: IkB-luc green channel] |
| COc1ccc(Cc2nc3ccc(C(=O)NCCc4ccc(OC)c(OC)c4)cc3o2)cc1 | 31.6 µM [falling, partial curve] |
| Cc1ccc(CNS(=O)(=O)c2cc(Br)cc3c2N(C(=O)C2CC2)CC3)cc1 | 3.16 µM [falling, partial curve] |
| Cc1cccc2c(=O)cc(CSCC(=O)Nc3ccc(Cl)cc3)[nH]c12 | 0.0631 µM [falling, full curve, poor fit] |

Exported with bars between the fields: 4 of the compounds above.
SMILES | AC50
NC(=O)c1c(C(F)(F)F)cc(-c2ccccc2)nc1NCCO | 15.8 µM [falling, partial curve]
Cc1ccc(NC(=O)Nc2cn(CC(C)C)c(=O)c3ccccc23)cc1N(C)C | 39.8 µM [falling, single point]
COc1ccc(-c2cc(C(C)=O)c(C)n2CCC(=O)NCc2ccc(C)cc2)cc1 | 20 µM [falling, single point]
COc1cccc(CNC(=O)C2CCN(C(=O)c3cnn(-c4ccccc4)c3-n3cccc3)CC2)c1 | 12.6 µM [falling, partial curve]

(listing goes on)

| SMILES | AC50 |
| --- | --- |
| Cc1ccc(CNC(=O)C(=O)NCC(c2ccco2)S(=O)(=O)c2ccc(C)cc2)cc1 (stereo not given) | 10 µM [rising, partial curve] |
| Cc1ccc(Cn2c(=O)n(Cc3ccccc3)c(=O)c3c(C)c(C)sc32)cc1 | 10 µM [falling, partial curve] |
| CCCCOc1cccc(C(=O)N(Cc2ccc(Br)o2)C2CCS(=O)(=O)C2)c1 (stereo not given) | 31.6 µM [falling, single point] |
| COc1cccc2c1C(=O)c1c(O)c3c(c(O)c1C2=O)C[C@](O)(C(C)=O)C[C@H]3O[C@@H]1C[C@H](N)[C@H](O)[C@H](C)O1 | 2 µM [falling, full curve] |
| COc1ccc2[nH]cc(CCNc3ncncc3-c3ccoc3)c2c1 | 3.16 µM [falling, partial curve] |
| COc1ccc(S(=O)(=O)NCC(c2ccco2)N2CCN(c3ccc(F)cc3)CC2)cc1 (stereo not given) | 10 µM [falling, partial curve] |
| CC(C)c1cnc2c(c1SCC(=O)c1ccccc1)c(=O)n(C)c(=O)n2C | 39.8 µM [falling, single point] |
| COC(=O)c1ccn(-c2nc(-c3ccc(Cl)cc3)cc(C(F)(F)F)n2)n1 | 20 µM [falling, partial curve] |
| Cc1ccc(C(=O)Nc2sc3c(c2C(=O)O)CCCCC3)o1 | 0.00794 µM [falling, full curve] |
| COc1ccc(-c2nc(C)c(CCNS(=O)(=O)c3ccc(F)cc3)s2)cc1OC | 0.0794 µM [falling, full curve, poor fit] |
| O=C(O)c1ccc(Oc2nc3ccccc3s2)cc1 | 3.16 µM [falling, partial curve] |
| CC(C)c1ccc(CN(Cc2ccco2)c2cnc(S(C)(=O)=O)nc2C(=O)Nc2ccccc2)cc1 | 5.01 µM [falling, full curve, poor fit] |
| CCn1c2ccccc2c2cc(NC(=O)CCCN3C(=O)CCC3=O)ccc21 | 3.98 µM [falling, full curve] |
| Cc1oc(-c2ccc(Cl)cc2)nc1CN1CCCC(C(=O)NCCc2ccccc2)C1 (stereo not given) | 25.1 µM [falling, partial curve] |
| CC(C)(C)c1cn(-c2ccccc2)c(=S)[nH]1 | 3.98 µM [falling, partial curve] |
| CC(=O)c1ccc(NC(=O)CSc2c(C(C)C)cnc3c2c(=O)n(C)c(=O)n3C)cc1 | 39.8 µM [falling, single point] |
| COC(=O)c1c(-c2cccs2)csc1NC(=O)c1ccc(C)cc1 | 10 µM [rising, partial curve, poor fit] |
| Cc1cc(NC(=O)c2cc(-c3ccc(Cl)c(Cl)c3)on2)n(-c2ccccc2)n1 | 39.8 µM [falling, single point] |
| CCOc1ccc(CNC(=O)C2CCN(C(=O)N3CC(CC)Oc4ccc(C)cc43)CC2)cc1OC (stereo not given) | 10 µM [falling, partial curve] |
| COc1ccccc1NC(=O)Cn1c(=O)n(CC2CCC(C(=O)NCCc3ccccc3)CC2)c(=O)c2ccccc21 (stereo not given) | 12.6 µM [falling, partial curve] |
